{"source": "paper PMC12670160", "about": "“A drug-repurposing screen of FDA- and EMA-approved drugs identifies two NF-κB inhibitors active against eumycetoma” (Journal of Antimicrobial Chemotherapy, 2025)", "note": "Where a name gives a salt, the structure may show the parent alone. Out of some 5,300 compounds screened, about 130 (2.5%) showed an effect of 50% or more. The list shows a part of the results.", "data": [{"system": "M. mycetomatis strain mm55", "conditions": "primary screen, metabolic activity vs growth control; 96 h, 2 µM; inhibitor", "units": {"% viability": "%"}, "values": [{"compound": "CS(=O)(=O)c1ccc(-c2cnc(NCc3ccco3)n3cnnc23)cc1", "note": "[ONC0002272, eed226]", "% viability": 58.08}, {"compound": "O=C1NC(=O)c2c1c1c3ccccc3n3c1c1c2c2ccccc2n1C1CCC3O1", "note": "[ONC0001372, sb218078]", "% viability": 97.11}, {"compound": "COC(=O)C(Cc1ccc(OCCn2c(=O)sc3cc(C(=O)c4ccccc4)ccc32)cc1)C(=O)OC", "note": "[ONC0000904, s26948]", "% viability": 86.12}, {"compound": "COc1cccc2cc(-c3nc([C@H]4CC[C@H](C(=O)O)CC4)n4ncnc(N)c34)[nH]c12", "note": "[ONC0005044, osi027]", "% viability": 67.14}, {"compound": "CC(C)=CCC[C@](C)(O)[C@@H]1CC=C(C)CC1", "note": "[ONC0002132, levomenol]", "% viability": 73.6}, {"compound": "N[C@@H](C(=O)O)c1ccc(C(=O)O)c(C(=O)O)c1", "note": "[ONC0001521, 34dcpgr]", "% viability": 108.8}, {"compound": "CCn1nc(C2CCN(C(=O)CCO)CC2)nc1-c1cnc(N)c(-c2nnc(C(C)(C)C)o2)n1", "note": "[ONC0000975, azd8835]", "% viability": 76.93}, {"compound": "O=C(Nc1ccccc1)N1CCC(Cc2cnc3ccccc3c2)CC1", "note": "[ONC0000229, pf750]", "% viability": 105.3}, {"compound": "Cc1c(C)c2c(c(C)c1O)CCC(C)(C(=O)O)O2", "note": "(centres unmarked) [ONC0003486, trolox]", "% viability": 64.78}, {"compound": "N=C(N)NN", "note": "[ONC0005358, pimagedine hydrochloride]", "% viability": 81.59}, {"compound": "FC(F)(F)C(F)(F)C(F)(F)N(C(F)(F)C(F)(F)C(F)(F)F)C(F)(F)C(F)(F)C(F)(F)F", "note": "[ONC0003646, perfluorotripropylamine]", "% viability": 72.65}, {"compound": "CC[C@H](C)C(=O)O[C@H]1C[C@@H](C)C=C2C=C[C@H](C)[C@H](CC[C@@H]3C[C@@H](O)CC(=O)O3)[C@H]21", "note": "[ONC0002444, lovastatin]", "% viability": 92.72}, {"compound": "CCO[C@H]1O[C@@H]2O[C@@]3(C)CC[C@H]4[C@H](C)CC[C@@H]([C@H]1C)[C@@]24OO3", "note": "[ONC0001164, artemotil]", "% viability": 106.6}, {"compound": "Clc1ccc(C(Cn2ccnc2)OCc2ccc(Sc3ccccc3)cc2)c(Cl)c1", "note": "(centres unmarked) [ONC0004926, fenticonazole nitrate]", "% viability": 131.8}, {"compound": "O=C(CCBr)N1CC[N+]2(CC1)CC[N+]1(CCN(C(=O)CCBr)CC1)CC2", "note": "[ONC0002743, 312bis3bromopropanoyl312diaza69diazoniadispiro5252hexadecane dichloride dichloride]", "% viability": 88.14}, {"compound": "CCN(CC)CCOC(=O)c1ccc(N)cc1", "note": "[ONC0000447, procaine hydrochloride]", "% viability": 88.33}, {"compound": "CC1(c2ccccc2)OC(C(=O)O)=CC1=O", "note": "(centres unmarked) [ONC0001728, acifran]", "% viability": 66.2}, {"compound": "O=c1cc(-c2ccccc2)oc2cc(O)c(O)c(O)c12", "note": "[ONC0001603, baicalein]", "% viability": 81.41}, {"compound": "CN1CCN(c2ccc(Nc3ncc4cc(C#N)c(=O)n(C5CCCC5)c4n3)cc2)CC1", "note": "[ONC0001086, on123300]", "% viability": 53.59}, {"compound": "CC(C)(Oc1ccc(Cl)cc1)C(=O)N1CSCC1C(=O)O", "note": "(centres unmarked) [ONC0003754, timofibrate]", "% viability": 102.1}, {"compound": "CN(C)CCn1nnnc1SCC1=C(C(=O)O)N2C(=O)[C@@H](NC(=O)Cc3csc(N)n3)[C@H]2SC1", "note": "[ONC0002085, cefotiam hydrochloride]", "% viability": 84.18}, {"compound": "Cc1ccc(-c2ncccn2)c(C(=O)N2C[C@H](COc3ccc(F)cn3)CC[C@H]2C)c1", "note": "[ONC0005570, filorexant]", "% viability": 73.84}, {"compound": "CC(C)c1ccc2c(c1)CC[C@H]1[C@](C)(CN)CCC[C@]21C", "note": "[ONC0000210, lylamine]", "% viability": 63.87}, {"compound": "CN[C@H]1C[C@@H](N)[C@H](O)[C@@H](O[C@@H]2O[C@H](CO)[C@@H]3OC4(O[C@@H]3[C@@H]2O)O[C@H](C(N)CO)[C@H](O)[C@H](O)[C@H]4O)[C@@H]1O", "note": "(some centres unmarked) [ONC0004423, hygromycin b]", "% viability": 124.4}, {"compound": "O=C(Nc1ccc(S(=O)(=O)C(F)(F)F)cc1)C1=CCN(c2ncccc2C(F)(F)F)CC1", "note": "[ONC0002673, a784168]", "% viability": 70.55}, {"compound": "CC(=O)O[C@H]1C[C@@]2(C)[C@@H](C[C@@H](O)[C@H]3[C@@]4(C)CC[C@@H](O)[C@@H](C)[C@@H]4CC[C@@]32C)/C1=C(\\CCC=C(C)C)C(=O)O", "note": "[ONC0000509, fusidic acid]", "% viability": 64.62}, {"compound": "O=C(O)Cc1cccc(OCCCN(Cc2cccc(C(F)(F)F)c2Cl)CC(c2ccccc2)c2ccccc2)c1", "note": "[ONC0003534, gw3965]", "% viability": 116}, {"compound": "O=[N+]([O-])/C=C/c1ccc2c(c1)OCO2", "note": "[ONC0004710, mns 34methylenedioxynitrostyrene]", "% viability": 114.1}, {"compound": "CC(C)N(CCC(C(N)=O)(c1ccccc1)c1ccccn1)C(C)C", "note": "(centres unmarked) [ONC0000638, disopyramide phosphate]", "% viability": 113.8}, {"compound": "NCc1ccccc1Sc1ccccc1CO", "note": "[ONC0005567, bipenamol]", "% viability": 100.4}, {"compound": "CC(=O)N[C@@H](CS)C(=O)O", "note": "[ONC0000337, acetylcysteine]", "% viability": 67.99}, {"compound": "CCN(CC)CCOc1ccc2c(c1)C(=O)c1cc(OCCN(CC)CC)ccc1-2", "note": "[ONC0004179, tilorone]", "% viability": 120.4}, {"compound": "NCCCCCNCC12CC3CC(CC(C3)C1)C2", "note": "[ONC0004720, iem 1754 dihydrobromide]", "% viability": 114.3}, {"compound": "O=C1CC(=O)c2c(Cl)c(Cl)c(Cl)c(Cl)c21", "note": "[ONC0005190, tcid]", "% viability": 96.33}, {"compound": "c1cc2c(cc1[C@H]1OC[C@H]3[C@@H]1CO[C@@H]3c1ccc3c(c1)OCO3)OCO2", "note": "[ONC0004953, sesamin fagarol]", "% viability": 94.91}, {"compound": "C/C=C/C[C@@H](C)C(=O)[C@H]1C(=O)N[C@@H](C(C)C)C(=O)N(C)CC(=O)N(C)[C@@H](CC(C)C)C(=O)N[C@@H](C(C)C)C(=O)N(C)[C@@H](CC(C)C)C(=O)N[C@@H](C)C(=O)N[C@H](C)C(=O)N(C)[C@@H](CC(C)C)C(=O)N(C)[C@@H](CC(C)C)C(=O)N(C)[C@@H](C(C)C)C(=O)N1C", "note": "[ONC0002268, valspodar]", "% viability": 56.22}, {"compound": "O=C(O)c1ccc2c(c1)nc(Nc1cccc(Cl)c1)c1ccncc12", "note": "[ONC0004933, cx4945 silmitasertib]", "% viability": 72.14}, {"compound": "CC1(C)O[C@@H]2C[C@H]3[C@@H]4CCC5=CC(=O)C=C[C@]5(C)[C@H]4[C@@H](O)C[C@]3(C)[C@]2(C(=O)CO)O1", "note": "[ONC0004126, desonide]", "% viability": 118}, {"compound": "O=C1NCCc2[nH]c(-c3ccncc3)cc21", "note": "[ONC0002632, pha767491]", "% viability": 69.18}, {"compound": "COC(=O)N[C@H](C(=O)N1CCC[C@H]1c1nc(-c2ccc3c(c2)O[C@@H](c2ccccc2)n2c-3cc3cc(-c4c[nH]c([C@@H]5CCCN5C(=O)[C@@H](NC(=O)OC)C(C)C)n4)ccc32)c[nH]1)C(C)C", "note": "[ONC0001980, elbasvir]", "% viability": 84.49}, {"compound": "Cc1ccc(NC(=O)c2cccc(N(C)C)c2)cc1NC(=O)c1ccc(O)cc1", "note": "[ONC0003044, zm336372]", "% viability": 76.4}, {"compound": "Cc1ccc(S(=O)(=O)Nc2ccc3c(c2)c(C(=O)C(F)(F)F)cn3CC(=O)N[C@@H](CC(C)C)C(=O)O)cc1", "note": "[ONC0002700, ntrc824]", "% viability": 67.52}, {"compound": "NC(=O)OC[C@@H]1[C@H](NC(=O)/C(=N\\OCC(=O)O)c2csc(N)n2)C(=O)N1S(=O)(=O)O", "note": "[ONC0005332, carumonam]", "% viability": 121.8}, {"compound": "C#C[C@]1(O)CC[C@H]2[C@@H]3CCC4=CC(=O)CC[C@@H]4C3CC[C@@]21CC", "note": "(some centres unmarked) [ONC0000428, norgestrel]", "% viability": 73.78}, {"compound": "CNc1nc(C)nc(N[C@H]2CCC[C@@H](C(=O)NCc3ccc(C#N)cc3C(F)(F)F)C2)n1", "note": "[ONC0001234, gsk2256294a]", "% viability": 74.03}, {"compound": "O=C(Nc1cc2cc[nH]c2cn1)c1ccccc1", "note": "[ONC0004711, oac1]", "% viability": 138.9}, {"compound": "COc1ccc(S(=O)(=O)Nc2cccnc2Nc2ccc(O)cc2)cc1", "note": "[ONC0004681, abt751 e7010]", "% viability": 87.95}, {"compound": "Cc1ccc2cc(-c3c(C)ccc(C(=O)c4c(-c5ccccc5)n(C)n(-c5ccccc5)c4=O)c3N)ccc2n1", "note": "[ONC0001349, amgperk44]", "% viability": 93.26}, {"compound": "C[C@]12C[C@H](O)[C@H]3[C@@H](CCC4=CC(=O)CC[C@@]43C)[C@@H]1CC[C@@H]2C(=O)CO", "note": "[ONC0002317, corticosterone]", "% viability": 76.74}, {"compound": "CCNC(=O)CCC/C=C\\C[C@@H]1[C@@H](/C=C/[C@@H](O)CCc2ccccc2)[C@H](O)C[C@@H]1O", "note": "[ONC0004864, bimatoprost]", "% viability": 75.33}, {"compound": "CCCCOc1ccc(CC/C=C2\\SC(=O)N(CCN)C2=O)cc1", "note": "[ONC0001767, k145 hydrochloride]", "% viability": 126.7}, {"compound": "CCCCNc1nc(N)c2[nH]c(=O)n(Cc3ccc(OCCN(C)C)nc3)c2n1", "note": "[ONC0000193, dsr6434]", "% viability": 63.87}, {"compound": "O=C(CCCCCCC(=O)Nc1ccccc1)NO", "note": "[ONC0004741, vorinostat saha mk0683]", "% viability": 83.83}, {"compound": "CCc1ccc2c(-c3cccc(Cl)c3)nc(=O)n(CC)c2n1", "note": "[ONC0004442, ym976]", "% viability": 108.3}, {"compound": "O=C(/C=C/c1ccc(O)c(O)c1)c1ccc(O)cc1O", "note": "[ONC0005228, butein]", "% viability": 150.4}, {"compound": "CC[C@H]1OC(=O)C[C@@H](O)[C@H](C)[C@@H](O[C@@H]2O[C@H](C)[C@@H](O[C@H]3C[C@@](C)(O)[C@@H](O)[C@H](C)O3)[C@H](N(C)C)[C@H]2O)[C@@H](CC=O)C[C@@H](C)C(=O)/C=C/C(C)=C/[C@@H]1CO[C@@H]1O[C@H](C)[C@@H](O)[C@@H](OC)[C@H]1OC", "note": "[ONC0003962, tylosin tartrate]", "% viability": 73.68}]}]}
